Article doi:10.1101/2023.02.08.527750
Results are given in words; binding and its absence hold for the method and conditions named. In cells and extracts the contact can be indirect. Some entries that bind do so weakly or less than the wild type. Where a sequence is shown, tags or fusion partners need not be part of it.

Protein sequences, listed by entry. Tags and fused reporters are not part of them.
UniProt Q9Y265: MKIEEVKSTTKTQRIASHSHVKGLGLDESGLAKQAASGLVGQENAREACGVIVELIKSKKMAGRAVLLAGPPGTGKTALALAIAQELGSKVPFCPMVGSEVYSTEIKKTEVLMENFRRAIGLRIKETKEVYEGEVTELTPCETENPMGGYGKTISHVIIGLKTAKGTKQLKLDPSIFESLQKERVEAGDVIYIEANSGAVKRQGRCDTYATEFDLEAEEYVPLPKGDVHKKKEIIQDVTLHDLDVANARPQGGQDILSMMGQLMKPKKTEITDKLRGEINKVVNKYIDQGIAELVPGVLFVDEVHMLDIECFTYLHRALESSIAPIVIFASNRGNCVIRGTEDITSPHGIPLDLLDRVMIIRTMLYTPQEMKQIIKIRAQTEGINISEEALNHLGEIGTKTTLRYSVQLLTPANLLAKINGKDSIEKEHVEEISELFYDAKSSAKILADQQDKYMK

Legend:
[1] = molecular target: T1, ITFG1-Myc (full-length ITFG1 with a Myc tag at the C-terminal) (human) (UniProt Q8TB96); assay: co-IP
T1 sequence: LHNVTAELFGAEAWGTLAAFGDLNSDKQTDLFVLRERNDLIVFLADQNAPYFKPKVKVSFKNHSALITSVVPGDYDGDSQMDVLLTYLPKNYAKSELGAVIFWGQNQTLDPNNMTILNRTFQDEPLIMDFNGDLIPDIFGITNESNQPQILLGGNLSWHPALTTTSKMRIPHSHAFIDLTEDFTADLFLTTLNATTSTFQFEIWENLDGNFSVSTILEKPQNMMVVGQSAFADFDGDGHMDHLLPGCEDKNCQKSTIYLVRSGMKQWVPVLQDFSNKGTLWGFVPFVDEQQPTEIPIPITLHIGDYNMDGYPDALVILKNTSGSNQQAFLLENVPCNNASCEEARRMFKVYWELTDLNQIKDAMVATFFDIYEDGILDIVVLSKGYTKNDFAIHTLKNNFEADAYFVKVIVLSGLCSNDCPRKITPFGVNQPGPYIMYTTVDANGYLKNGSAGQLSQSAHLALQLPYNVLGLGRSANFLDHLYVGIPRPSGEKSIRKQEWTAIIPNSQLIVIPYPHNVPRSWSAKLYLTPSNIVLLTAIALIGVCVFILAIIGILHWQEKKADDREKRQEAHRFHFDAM

[2] = molecular target: FLAG-RUVBL1 (full-length RUVBL1 with N-terminal 3xFLAG tag) (human) (UniProt Q9Y265); assay: co-IP

In the case of “RUVBL1 (endogenous) (from UniProt Q9Y265 1-456)”, the binding [1] is reported as “binds”.

B1: ITFG1-Myc (full-length ITFG1 with a Myc tag at the C-terminal) (protein, UniProt Q8TB96 34-612)
chain: LHNVTAELFGAEAWGTLAAFGDLNSDKQTDLFVLRERNDLIVFLADQNAPYFKPKVKVSFKNHSALITSVVPGDYDGDSQMDVLLTYLPKNYAKSELGAVIFWGQNQTLDPNNMTILNRTFQDEPLIMDFNGDLIPDIFGITNESNQPQILLGGNLSWHPALTTTSKMRIPHSHAFIDLTEDFTADLFLTTLNATTSTFQFEIWENLDGNFSVSTILEKPQNMMVVGQSAFADFDGDGHMDHLLPGCEDKNCQKSTIYLVRSGMKQWVPVLQDFSNKGTLWGFVPFVDEQQPTEIPIPITLHIGDYNMDGYPDALVILKNTSGSNQQAFLLENVPCNNASCEEARRMFKVYWELTDLNQIKDAMVATFFDIYEDGILDIVVLSKGYTKNDFAIHTLKNNFEADAYFVKVIVLSGLCSNDCPRKITPFGVNQPGPYIMYTTVDANGYLKNGSAGQLSQSAHLALQLPYNVLGLGRSANFLDHLYVGIPRPSGEKSIRKQEWTAIIPNSQLIVIPYPHNVPRSWSAKLYLTPSNIVLLTAIALIGVCVFILAIIGILHWQEKKADDREKRQEAHRFHFDAM
For B1, the binding [2] was “binds”.
